Experimental data: paper PMC9166791
No constants are given. Whether binding was seen depends on the method and setting. Binding seen in cells or lysates may run through a third protein. Binding calls can cover weak binding; strength is not graded here.

Sequences of proteins named here, by UniProt entry; tags and fusion partners are left off. A change or cut given only in a name is not applied to a line headed by its entry.
UniProt Q9ES97: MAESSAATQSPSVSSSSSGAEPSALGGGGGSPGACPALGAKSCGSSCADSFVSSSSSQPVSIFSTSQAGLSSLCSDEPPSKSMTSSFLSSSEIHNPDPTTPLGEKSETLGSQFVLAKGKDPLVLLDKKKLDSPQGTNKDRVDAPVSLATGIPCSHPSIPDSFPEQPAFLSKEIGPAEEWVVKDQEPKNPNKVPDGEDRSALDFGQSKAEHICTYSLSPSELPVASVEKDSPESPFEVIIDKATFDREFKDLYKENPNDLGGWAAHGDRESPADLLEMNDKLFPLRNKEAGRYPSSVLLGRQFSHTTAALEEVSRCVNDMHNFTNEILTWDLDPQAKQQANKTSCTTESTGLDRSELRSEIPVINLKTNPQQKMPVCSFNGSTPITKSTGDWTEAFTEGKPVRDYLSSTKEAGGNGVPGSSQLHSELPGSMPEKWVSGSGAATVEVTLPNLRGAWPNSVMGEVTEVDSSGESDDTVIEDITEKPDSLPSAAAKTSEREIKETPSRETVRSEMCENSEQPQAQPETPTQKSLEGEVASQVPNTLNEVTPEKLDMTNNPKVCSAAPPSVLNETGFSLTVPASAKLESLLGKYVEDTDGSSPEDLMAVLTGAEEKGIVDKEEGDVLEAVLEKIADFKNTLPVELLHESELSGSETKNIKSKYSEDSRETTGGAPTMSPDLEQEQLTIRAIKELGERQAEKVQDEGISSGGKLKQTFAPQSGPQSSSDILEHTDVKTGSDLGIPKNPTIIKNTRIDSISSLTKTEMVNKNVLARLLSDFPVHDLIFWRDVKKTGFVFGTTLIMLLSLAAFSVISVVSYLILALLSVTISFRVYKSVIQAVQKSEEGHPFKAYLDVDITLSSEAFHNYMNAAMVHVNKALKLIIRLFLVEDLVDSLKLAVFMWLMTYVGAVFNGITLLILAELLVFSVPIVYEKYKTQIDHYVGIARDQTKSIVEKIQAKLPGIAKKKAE

Target: Reticulon 3 (RTN3) (mouse (endogenous in renal tubular epithelial cells of WT mice)) (UniProt Q9ES97)
Test: co-IP; endogenous proteins; lysates (500 ug in 1 mL) immunoprecipitated with Protein A + G beads overnight, Western blot; legend: mouse renal tubular epithelial cells, methods: kidney tissues of WT mice

B1: GC-Rich Promoter Binding Protein 1 (GPBP1) (protein, UniProt Q6NXH3 1-473)
chain: MAQHDFAPAWLNFPTPPSSTKSSLNFEKHSENFSWTENRYDVSRRRHNSSDGFDSGIGRPNGGNFGRKEKNGWRTHGRNGTENINHRGGYHGGNSRSRSSIFHSGKSQGLHENSIPDNETGRKEDKRERRQFEAEDFPSLNPEYEREPNQNKSLAAGVWDYPPNPKSRTPRMLVIKKGNTKDLQLSGFPVAGNLQSQPVKNGTGPSVYKGLVPKPAVPPTKPTQWKSQTKENKVGTSFSHESTYGVGNFNTFKSTAKNISPSTNSVKECNRSNSSSPVDKLNQQPRLTKLTRMRSDKKSEFLKALKRDRVEEEHEDESHAGSEKDDDSFNLHNSNTTHQERDINRNFDENEIPQENGNASMISQQIIRSSTFPQTDVLSSSLEAEHRLLKEMGWQEDSENDETCAPLTEDEMREFQVISEQLQKNGLRKNGILKNGLICDFKFGPWKNSTFKPTIENDDTETSSSDTSDDDDV
B1 was tested, and the binding was “binds”.
